Results published in the supplement of paper PMC6078165.
± gives the standard deviation of the averaged measurements. Values are relative to the signal before dosing, not to a vehicle control; the signal also falls without drug.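 Labels refer to human fibroblasts, largely primary: uterine (C12385, HUF), lung (H6013), bone (Hs27A), adrenal (HADF), skin (WS1), plus mammary HMF and breast cancer-associated Hs343T. Cancer lines are basal-like or mesenchymal-like triple-negative breast cancer. The paper counts as hits responses shifting over 3x the replicate standard deviation. The tissue of the other fibroblasts is not given here.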

System: Hs578T
Experiment: relative JC-1 red fluorescence (viability) vs pre-drug, coculture with fibroblast (fraction); higher = more viable cancer cells
Experimental: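 JC-1 labelled TNBC cells cocultured 1:1 (1,500 cells each) with CellTrace Violet stained primary or stromal fibroblasts in 384-well plates in FluoroBrite medium, treated with one of 42 anticancer drugs at 0.1, 1, 10 or 100 uM. JC-1 red fluorescence (mitochondrial integrity in cancer cells only) was read by plate reader every 8 h for 72 h. Values are normalised to each well's pre-drug value. The stock of one drug was tenfold lower, so its dose labels may be too high.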

O=C1c2c(O)ccc(O)c2C(=O)c2c(NCCNCCO)ccc(NCCNCCO)c21 [Mitoxantrone]
relative JC-1 red fluorescence
Details	8 h	16 h	24 h	32 h	40 h	48 h	56 h	64 h	72 h
1 µM, coculture fibroblast: C12385	–	–	–	–	–	0.353 ± 0.079	0.343 ± 0.081	0.342 ± 0.08	0.338 ± 0.079
1 µM, coculture fibroblast: H6013	–	–	–	–	–	0.61 ± 0.051	0.601 ± 0.048	0.588 ± 0.044	0.553 ± 0.044
1 µM, coculture fibroblast: H6019	–	–	–	–	–	0.455 ± 0.094	0.455 ± 0.095	0.45 ± 0.095	0.435 ± 0.1
1 µM, coculture fibroblast: H6076	–	–	–	–	–	0.535 ± 0.036	0.514 ± 0.043	0.496 ± 0.033	0.487 ± 0.038
1 µM, coculture fibroblast: H6231	–	–	–	–	–	0.545 ± 0.012	0.532 ± 0.021	0.522 ± 0.02	0.527 ± 0.022
1 µM, coculture fibroblast: HADF	–	–	–	–	–	0.578 ± 0.011	0.581 ± 0.0078	0.583 ± 0.017	0.539 ± 0.017
1 µM, coculture fibroblast: HCFa	–	–	–	–	–	0.5922 ± 0.0022	0.579 ± 0.016	0.576 ± 0.024	0.531 ± 0.041
1 µM, coculture fibroblast: HCPF	–	–	–	–	0.58 ± 0.012	0.582 ± 0.0081	0.6131 ± 0.0057	0.581 ± 0.0026	0.591 ± 0.018
1 µM, coculture fibroblast: HHSteC	–	–	–	–	0.603 ± 0.036	0.6 ± 0.031	0.577 ± 0.0061	0.5724 ± 0.0028	0.5351 ± 0.0043
1 µM, coculture fibroblast: HMF	–	–	–	–	0.52 ± 0.061	0.507 ± 0.057	0.505 ± 0.057	0.486 ± 0.051	0.477 ± 0.046
1 µM, coculture fibroblast: HPFa	–	–	–	–	0.624 ± 0.051	0.629 ± 0.05	0.624 ± 0.044	0.623 ± 0.035	0.59 ± 0.038
1 µM, coculture fibroblast: HUF	–	–	–	–	0.394 ± 0.0094	0.371 ± 0.0038	0.352 ± 0.0081	0.338 ± 0.011	0.327 ± 0.011
1 µM, coculture fibroblast: Hs27A	–	–	–	–	0.704 ± 0.016	0.691 ± 0.016	0.687 ± 0.023	0.684 ± 0.034	0.63 ± 0.031
1 µM, coculture fibroblast: Hs343T	–	–	–	–	0.492 ± 0.016	0.475 ± 0.011	0.454 ± 0.019	0.435 ± 0.014	0.433 ± 0.017
1 µM, coculture fibroblast: WS1	–	–	–	–	0.331 ± 0.01	0.315 ± 0.008	0.301 ± 0.018	0.3 ± 0.0091	0.295 ± 0.016
10 µM, coculture fibroblast: C12385	0.306 ± 0.0049	0.346 ± 0.0088	0.4084 ± 0.0037	0.324 ± 0.042	0.284 ± 0.065	0.245 ± 0.063	0.208 ± 0.06	0.178 ± 0.056	0.146 ± 0.054
10 µM, coculture fibroblast: H6013	0.704 ± 0.048	0.901 ± 0.085	0.868 ± 0.089	0.782 ± 0.058	0.704 ± 0.054	0.642 ± 0.044	0.563 ± 0.038	0.485 ± 0.039	0.379 ± 0.028
10 µM, coculture fibroblast: H6019	0.399 ± 0.05	0.465 ± 0.058	0.476 ± 0.021	0.353 ± 0.07	0.3 ± 0.069	0.278 ± 0.052	0.251 ± 0.054	0.232 ± 0.05	0.207 ± 0.046
10 µM, coculture fibroblast: H6076	0.61 ± 0.0085	0.634 ± 0.048	0.763 ± 0.043	0.728 ± 0.046	0.719 ± 0.041	0.69 ± 0.042	0.62 ± 0.031	0.5573 ± 0.0014	0.487 ± 0.0075
10 µM, coculture fibroblast: H6231	0.715 ± 0.074	0.778 ± 0.047	0.804 ± 0.058	0.833 ± 0.05	0.725 ± 0.045	0.663 ± 0.057	0.553 ± 0.053	0.471 ± 0.053	0.413 ± 0.057
10 µM, coculture fibroblast: HADF	0.613 ± 0.041	0.619 ± 0.013	0.591 ± 0.0082	0.59215 ± 0.0004	0.5567 ± 0.0045	0.5161 ± 0.0047	0.454 ± 0.016	0.401 ± 0.02	0.319 ± 0.013
10 µM, coculture fibroblast: HCFa	0.629 ± 0.061	0.806 ± 0.2	0.786 ± 0.27	0.715 ± 0.1	0.745 ± 0.2	0.721 ± 0.15	0.687 ± 0.19	0.726 ± 0.34	0.612 ± 0.31
10 µM, coculture fibroblast: HCPF	0.59 ± 0.019	0.578 ± 0.022	0.665 ± 0.036	0.774 ± 0.051	0.754 ± 0.038	0.744 ± 0.062	0.688 ± 0.057	0.636 ± 0.067	0.552 ± 0.068
10 µM, coculture fibroblast: HHSteC	0.762 ± 0.071	0.927 ± 0.015	0.855 ± 0.08	0.775 ± 0.081	0.674 ± 0.089	0.61 ± 0.082	0.547 ± 0.083	0.481 ± 0.071	0.377 ± 0.064
10 µM, coculture fibroblast: HMF	0.568 ± 0.046	0.604 ± 0.079	0.732 ± 0.15	0.747 ± 0.27	0.728 ± 0.25	0.681 ± 0.26	0.631 ± 0.26	0.592 ± 0.23	0.542 ± 0.2
10 µM, coculture fibroblast: HPFa	0.7062 ± 0.0066	0.79 ± 0.015	0.623 ± 0.024	0.605 ± 0.019	0.584 ± 0.021	0.572 ± 0.04	0.552 ± 0.029	0.514 ± 0.033	0.428 ± 0.033
10 µM, coculture fibroblast: HUF	0.391 ± 0.041	0.446 ± 0.055	0.437 ± 0.058	0.339 ± 0.07	0.322 ± 0.066	0.3 ± 0.057	0.266 ± 0.068	0.256 ± 0.068	0.226 ± 0.063
10 µM, coculture fibroblast: Hs27A	0.622 ± 0.017	0.789 ± 0.09	0.796 ± 0.11	0.821 ± 0.085	0.75 ± 0.059	0.707 ± 0.057	0.63 ± 0.036	0.582 ± 0.022	0.477 ± 0.025
10 µM, coculture fibroblast: Hs343T	0.576 ± 0.0064	0.6388 ± 0.0044	0.72 ± 0.044	0.726 ± 0.087	0.673 ± 0.076	0.637 ± 0.065	0.565 ± 0.05	0.492 ± 0.035	0.414 ± 0.033
10 µM, coculture fibroblast: WS1	0.334 ± 0.025	0.328 ± 0.078	0.425 ± 0.081	0.355 ± 0.095	0.3 ± 0.085	0.261 ± 0.085	0.219 ± 0.089	0.188 ± 0.076	0.155 ± 0.083

relative JC-1 red fluorescence
Details	8 h	16 h	24 h	32 h	40 h	48 h	56 h	64 h	72 h
1 µM	–	–	–	–	–	0.684 ± 0.013	0.69 ± 0.016	0.646 ± 0.012	0.6332 ± 0.0063
10 µM	0.706 ± 0.062	0.824 ± 0.15	0.867 ± 0.12	0.804 ± 0.12	0.733 ± 0.12	0.637 ± 0.13	0.535 ± 0.083	0.49 ± 0.11	0.413 ± 0.077
